# For at least one compound, name, drawing or mass did not settle the structure.
# Columns and labels:
# Type in all cases: in vivo
# [1] = tested on: matrix metallopeptidase-9 (MMP9); assay: PCR gene expression after MCAO with intranasal DFO pretreatment: MMP9; details: rats pretreated with intranasal DFO, 24 hours after MCAO
# [2] = tested on: caspase-12; assay: PCR gene expression after MCAO with intranasal DFO pretreatment: caspase-12; details: rats pretreated with intranasal DFO, 24 hours after MCAO
# [3] = tested on: annexin-A1; assay: PCR gene expression after MCAO with intranasal DFO pretreatment: annexin-A1; details: rats pretreated with intranasal DFO, 24 hours after MCAO
# [4] = tested on: heme oxygenase (decycling)-1; assay: PCR gene expression after MCAO with intranasal DFO pretreatment: heme oxygenase (decycling)-1; details: rats pretreated with intranasal DFO, 24 hours after MCAO
# [5] = tested on: Alzheimer's transgenic mice (APP/PS1); assay: Morris Water Maze in Alzheimer's transgenic mice treated with intranasal DFO; details: intranasal DFO three times weekly
# [6] = tested on: insulin-like growth factor 2 (IGF-2); assay: PCR gene expression after MCAO with intranasal DFO pretreatment: IGF-2; details: rats pretreated with intranasal DFO, 24 hours after MCAO
# [7] = tested on: caspase-4; assay: PCR gene expression after MCAO with intranasal DFO pretreatment: caspase-4; details: rats pretreated with intranasal DFO, 24 hours after MCAO
smiles,measurement,setting,value
"CC(=O)N(O)CCCCCNC(=O)CCC(=O)N(O)CCCCCNC(=O)CCC(=O)N(O)CCCCCN [DFO, deferoxamine]",expression of the gene for MMP9 (PCR),[1],"reduces, inhibits or prevents the increase in the expression of the gene for MMP9"
same,expression of the gene for caspase-12 (PCR),[2],"differentially prevents, reduces or inhibits the increase in caspase-12"
same,"expression of the gene for annexin-A1 (PCR), marker of brain inflammation",[3],greatly reduces brain inflammation
same,expression of heme oxygenase (decycling)-1 (PCR),[4],greatly reduces the increase in heme oxygenase (decycling)-1
same,average escape latency in Morris water maze,[5]; after four months of treatment,the Alzheimer-DFO group had a shorter latency
same,average path length in Morris water maze,[5]; after four months of treatment,significantly shorter average path lengths than the Alzheimer-PBS group
same,average escape latency in Morris water maze,[5]; after two months of treatment,the Alzheimer-DFO group taking less time
same,average path length in Morris water maze,[5]; after two months of treatment,significantly shorter that the Alzheimer-PBS treated group
same,expression of IGF-2 (PCR),[6],significantly reduces the increased expression of IGF-2
same,expression of the gene for caspase-4 (PCR),[7],"differentially prevents, inhibits or reduces the increase in caspase-4"
